This passage reports binding results from article PMC7311171 (2020).

For assay [1], the target named is BBS1, subunit of the bovine BBSome (bovine (endogenous in retina)). Put plainly: cryo-EM structure; full-length ARL6 incubated with GTP (1:20) and added to purified BBSome at a molar ratio of 5:1, on ice; map at 4.0 Å; both purified.
The target of assay [2] is BBS7, subunit of the bovine BBSome (bovine (endogenous in retina)). Described as above.
In assay [3] the target is BBS1, subunit of the bovine BBSome (bovine (endogenous in retina)). Put plainly: cryo-EM structure; BBSome alone, purified from bovine retina, 0.4–0.6 mg/mL; map at 3.4 Å; both purified.

Results are given in words; binding and its absence hold for the method and conditions named. A result given as binding can be weak or reduced; the word gives no strength.

B1: ARL6^GTP (full-length ARL6 incubated with GTP) (protein, UniProt Q0IIM2 1-186)
chain: MGLLDRLSGLLGLKKKEVHVLCLGLDNSGKTTIINKLKPSNAQSQDIVPTIGFSIQKFKSSSLSFTVFDMSGQGRYRNLWEHYYKEGQAIIFVIDSSDKLRMVVAKEELRTLLNHPDIKHRRIPILFFANKMDLRDALTSVKVSQLLCLEDIKDKPWHICASDAIKGEGLQEGVDWLQDQIQSVKT
On to B1, for which the binding entry in assay [1] and in assay [2] was “binds” throughout.

B2: BBS4, subunit of the bovine BBSome (protein, UniProt Q1JQ97 1-519)
chain: MAEEKLSARTQLPVSAESQKPVLKKAPEFPILEKQNWLIHLYYIQKDYEACKAVIKEQLQETHGLCEYAIYVQALIFRLEGNIQESLRLFQMCAFLSPQCADNLKQVARSLFLLGKHKAAIEVYNEAAKLNQKDWEICHNLGVCYIYLKQFDKAQDQLHNALHLNRHDLTYIMLGKIFLLKGDLDKAIEIYKKAVEFSPENTELLTTLGLLYLQLGIYQKAFEHLGNTLTYDPTNYKAILAAGSMMQTHGDFDVALTKYKVVACAVIESPPLWNNIGMCFFGKKKYVAAISCLKRANYLAPLDWKILYNLGLVHLTMQQYASAFHFLSAAINFQPKMGELYMLLAVALTNLEDSENAKRAYEEAVRLDKCNPLVNLNYAVLLYNQGEKRDALAQYQEMEKKVNLLKYSSSLEFDPEMVEVAQKLGAALQVGEALVWTKPVKDPKSKHQTASTSKAAGFQQPLGSNQALGQAMSSAATCRKLSSGAGGTSQLTKPPSLPLEPEPTVEAQPTEASAQTREK
Regarding B2, in assay [3], the binding result is on record as “binds”.
